The values that follow come from PMC12714725.

Protein sequences, listed by entry. Tags and fused reporters are not part of them.
UniProt P48727: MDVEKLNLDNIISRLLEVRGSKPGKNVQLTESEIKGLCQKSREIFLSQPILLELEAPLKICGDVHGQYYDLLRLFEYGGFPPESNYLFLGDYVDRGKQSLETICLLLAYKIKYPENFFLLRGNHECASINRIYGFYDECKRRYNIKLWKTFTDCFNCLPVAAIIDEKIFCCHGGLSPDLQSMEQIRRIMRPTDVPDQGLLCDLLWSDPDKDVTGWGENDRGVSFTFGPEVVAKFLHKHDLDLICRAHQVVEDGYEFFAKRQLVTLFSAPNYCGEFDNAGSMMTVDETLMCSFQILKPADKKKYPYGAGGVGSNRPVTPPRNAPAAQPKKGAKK

These are yes or no findings as the source states them, for the method shown. Binding seen in cells or lysates may run through a third protein. A yes stands for co-enrichment or nearness to the bait. Other partners may have been found.

This assay has as its target mNeonGreen tagged GSP-2 (C. elegans) (UniProt P48727). Put plainly: affinity purification with mass spectrometry; mNeonGreen::GSP-2 precipitated from about 3 mg embryonic extract with mNeonGreen-Trap Agarose beads, 4 °C, 1.5 h; IP buffer 100 mM KCl, 50 mM Tris pH 7.5, 1 mM MgCl2, 1 mM DTT, 5% glycerol, 0.2% NP-40, 1 mM EDTA; N2 strain as control; triplicate; DIA mass spectrometry.

B1: APE-1 (protein, UniProt Q9XVN3 1-769)
chain: MVTTSSGGGIGYPANNGVTQVSLIHSSDSVRTVSTAPIYRPTSSMASTMAHKSSTAPFISANQRMSKPPVRVVAQPPPPHPQALSQQYHQQNPMMMYSAPNTRPHVIPTMQVQPTMAAQIKRNNPVNAQFQNPSEMIADYGVKPQSVEMVQRVRAVRRQVADEETELRRLRELEHETAQLQNKNYGRERELNVQGSMLKEAQLELRNASMRAQSLNKHLEEMYRRRQTAAAAALVEQRKMQQHQILLARAANQVSTQEVIRPRASVEPFQVNNTQQQQPSPQMMKSEEFSEKRDLNGQTGSYDAIDGSGDHQKIPTEPSYLAPCKENQQKYSELSKMASTDPHSNHSSPSTSSQKAPTLITFSPPSFEQKINSSTMTRDSPFVERPTSFGDSLDESRLRSGKTDLVSLRSDSLKATKRRSWAASEGTSMSEAEMIHRLLDEQRRGRSHFIPQLPTSQEEPSAITSETYAEEVVNSESKQVATSSDSTNNLELPTEQMVLGSDTTTEEDASSCSTRSDDGQNLEMEVAIERRTVKGILRRPNEKMNKGRIEFDPLALLLDAALEGELDLVRSSASKLTDVSQANDEGITALHNAICAGHYEIVRFLIENDADVNAQDSDGWTPLHCAASCNNLPMVRQLVEGGGCVLASTLSDMETPVEKCEEDEDGYDGCLKYLSAAHNSTGSINTGKVYAAYGYEAAFEDELSFDAGDELTVIEKDKVDKNWWTCEKNNGEKGQVPRTYLALYPSLKYRKKLNFVMFDLPLESNNNVE
On to B1, for which the binding entry is given as “binds”.

B2: SDS-22 (protein, UniProt P45969 1-326)
chain: MSNDKSAEVVVLPRENDEESKEPVLKNQFDLSTFDIDSPEIDLTHTRADHIPDLTGFPKIEELRMRNNLLVSISPTISSLVTLTSLDLYENQLTEISHLESLVNLVSLDLSYNRIRQINGLDKLTKLETLYLVSNKIEKIENLEALTQLKLLELGDNRIKKIENIGHLVNLDELFIGKNKIRQLEGVETLQKLSVLSLPGNRIVKIENVEQLNNLKELYLSDQGLQDIHGVEPLTNLLLLDVANNEIKTFSGVERLESLNDFWANDNKVESFSEIEQLSKLKGLQTVYLERNPFYFNDTNQYRRKVMMTLTQVTQIDATTCRKPIE
As to B2, the binding result is listed as “binds”.
